Assay results taken from patent publication US20180215829A1.
These are yes or no findings as the source states them, for the method shown. Some entries that bind do so weakly or less than the wild type. Sequences can lack the tags named with a protein.

Target: T1, recombinant human IL-17RA Fc fusion protein (R&D Systems 177-IR-100) (human) (UniProt Q96F46)
T1 sequence: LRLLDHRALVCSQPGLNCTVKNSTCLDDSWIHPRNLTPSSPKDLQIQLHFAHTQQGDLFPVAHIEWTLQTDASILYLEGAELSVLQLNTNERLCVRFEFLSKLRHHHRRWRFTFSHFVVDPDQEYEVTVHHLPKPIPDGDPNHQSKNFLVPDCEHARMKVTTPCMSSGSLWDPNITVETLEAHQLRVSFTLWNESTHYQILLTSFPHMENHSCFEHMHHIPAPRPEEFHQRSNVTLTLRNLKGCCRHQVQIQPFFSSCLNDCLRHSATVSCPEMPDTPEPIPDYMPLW
Assay: specificity ELISA (FIG. 14)

B1: VH 62A4 (VHH)
VHH: QVQLVESGGGLVQPGRSLTLSCTASGFTFHDYAMHWVRQPPGGGLEWVAGVSWNGNNVGYADSVKGRFTISRDNAKKSLYLQMNSLRSEDTALYYCAKGGMGSGSHPDSFSTWGQGTMVTVSS
  binding: binds
